{"source": "paper PMC8616041", "target": "V^N-DJ-1 (human) (UniProt Q99497)", "assay": "split reporter; mVenus BiFC constructs co-transfected into HeLa cells; BiFC signal detected on fixed samples by confocal microscopy", "note": "No constants are given. Whether binding was seen depends on the method and setting. Binding seen in cells or lysates may run through a third protein. Some entries that bind do so weakly or less than the wild type.", "data": [{"substance": "V^C-TPPP/p25 (from UniProt O94811 1-219)", "values": [{"measurement": "binding", "value": "binds"}]}]}
